Data as given in patent US20130266605A1, “PEPTIDE INHIBITORS OF CD40L SIGNALING AND USES THEREFOR” (PHYLOGICA LIMITED, priority 2010, published 2013).
These are yes or no findings as the source states them, for the method shown. Some results given as binding are weak or reduced against the parent protein; the word gives no strength.

B1: CD40L M8_720 (peptide)
peptide: RLPETRKAQAALATKYGIYGFCYYHYWFNGRRILESPVDAMLESGEPDFPFMLCWANENWT
notes: Base peptide
B2: CD40L M9_763 (peptide)
peptide: LDLFGDFNGLPEGADRTEFYQHEGHWQNRMILGDSLQVMASLAEREGLRGKVQCIYFDPPYGIKFN
notes: Base peptide
B3: CD40L M9_789 (peptide)
peptide: LLAEQAGTLKSELEAMPLGEYEHAARYVSEVECNWKTFAGNYSECDHCHANHQDWITDIELEESELEVNDYHWILHYTHDEDVEDEMRIHDEHEAKFYYFWPNFT
notes: Base peptide
B4: M06_40L_0104_0839 (peptide)
peptide: PGVVRSCVEWSGIDWSCEELCGVEWNGVEWKGVEWNGMEWNGMELNGREWSGTEENGVEWSGVERSGSW
B5: C02_40L_0304_1028 (peptide)
peptide: LCDPNGRAEAIPEAKSDVTVTHQFITIWSEWIRMDVLMTGVYGRCGTAVIDHLHDDDAYDFTYLN
B6: C02_40L_0404_1045 (peptide)
peptide: LGDPNGRAEAIPEAKSDVTVTHQFITIWSEWIRMDVLMTGVYGRCGTAVIDHLHDDDAYDFTYFN
B7: C02_40L_0804_1169 (peptide)
peptide: RLEWNGMELNGITPSEMAWKGTEYNLMEWNGINPSGMEWIGMEWNGMEWKGMEWNGMEWFQLE
B8: M09_40L_0204_1005 (peptide)
peptide: PWNEMEWKGIEWNQPEWNGMERNGMEWNGMEWNGMEWNQLDWNGMEWNGLE
B9: C02_40L_0104_0979 (peptide)
peptide: PWNEMEWKGIEWNQPEWNGMERNGMEWNGMEWNGMEWNQLDWNGMEWNGLE
B10: C02_40L_0804_1151 (peptide)
peptide: LVQGSKEATTIDESAELEALADAVAEEILSSDGIYFLGAGSTIKRIKDKIGIEGTLLGVDVVRVENGKAKLLVKDA
B11: C02_40L_0804_1173 (peptide)
peptide: LVQGSKEATTIDESAELEALADAVAEEILSSDGIYFLGAGSTIKRIKDKIGIEGTLLGVDVVRVENGKAKLLVKDA
B12: C02_40L_0105_0983 (peptide)
peptide: QVLRTLQVVTCRAGELEIRLETLEDGYPEWHPASYPFQGILKLFFYREITGN
B13: C02_40L_0105_0985 (peptide)
peptide: QVLRTLQVVTCRAGELEIRLETLEDGYPEWHPASYPFQGILKLFFYREITGN
B14: C02_40L_0105_0987 (peptide)
peptide: QVLRTLQVVTCRAGELEIRLETLEDGYPEWHPASYPFQGILKLFFYREITGN
B15: C02_40L_0105_0986 (peptide)
peptide: QVLRTLQVVTCRAGELEIRLETLEDGYPEWHPASYPFQGILKLFFYREITGN
B16: C02_40L_0405_1048 (peptide)
peptide: LYEYNADTPTSIYEAGVFQWLWLEDMIQQGALPEATDQFNSLHDQLAERFKAIFPNGGFVHFA
B17: C02_40L_0204_0992 (peptide)
peptide: LLGRDGWPVSIGPDSQMSLEVIDRHSEALFEFLWCPVCGHEVFSHIPFEGVFCK
B18: C02_40L_0203_0988 (peptide)
peptide: LWWDGTVAGLEYFTAGFDGFEIEWADAAGEYGFTKERLYELDSDLHLVDPVWVTMQDNWNRSDTDEVADNIGPWFGNYY
B19: C02_40L_0505_1072 (peptide)
peptide: LGRDGWPVSIGPDSQMSLEVIDRHSEALFEFLWCPVCGHEVFSHIPFEGVFC
B20: C02_40L_0303_1020 (peptide)
peptide: LFGSRPLSRSCLELLHEESEISVEAVVTHPEGHDGWWDGALRSKAEEYGYPVIEENEVFECELDYIISVLYYEILDAELLEHPKQGGLNLHQAELPRYRG
B21: C02_40L_0704_1100 (peptide)
peptide: LFGSRPLSRSCLELLHEESEISVEAVVTHPEGHDGWWDGALRSKAEEYGYPVIEENEVFECELDYIISVLYYEILDAELLEHPKQGGLNLHQAELPRYRG
B22: C02_40L_0503_1053 (peptide)
peptide: LFGSRPLSRSCLELLHEESEISVEAVVTHPEGHDGWWDGALRPKAEEYGYPVIEENEVFECELDYIISVLYYEILDAELLEHPKQGGLNLHQAELPRYRG
B23: C02_40L_0604_1080 (peptide)
peptide: LYEYNADTPTSIYEAGVFQWLWLEDMIQQGALPEATDQFNSLHDQLAERFKAIFPN
B24: C02_40L_0803_1125 (peptide)
peptide: LSACTPSGCTHPGSRGDDLQMATQWIFTLRCRTVGNSTRDVRISTQGSPHIELIDPFGNGALWVIL
B25: C02_40L_0804_1155 (peptide)
peptide: LSACTPSGCTHPGSRGDDLQMATQWIFTLRCRTVGNSTRDVRISTQGSPHIELIDPFGNGALWVIL
B26: C02_40L_0804_1162 (peptide)
peptide: LSACTPSGCTHPGSRGDDLQMATQWIFTLRCRTVGNSTRDVRISTQGSPHIELIDPFGNGALWVIL
B27: C02_40L_0803_1127 (peptide)
peptide: LSACTPSGCTHPGSRGDDLQMATQWIFTLRCRTVGNSTRDVRISTQGSPHIELIDPFGNGALWVIL
B28: C02_40L_0804_1152 (peptide)
peptide: LSACTPSGCTHPGSRGDDLQMATQWIFTLRCRTVGNSTRDVRISTQGSPHIELIDPFGNGALWVIL
B29: C02_40L_0804_1148 (peptide)
peptide: LSACTPSGCTHPGSRGDDLQMATQWIFTLRCRTVGNSTRDVRISTQGSPHIELIDPFGNGALWVIL
B30: C02_40L_0804_1149 (peptide)
peptide: LSACTPSGCTHPGSRGDDLQMATQWIFTLRCRTVGNSTRDVRISTQGSPHIELIDPFGNGALWVIL
B31: C02_40L_0804_1164 (peptide)
peptide: LSACTPSGCTHPGSRGDDLQMATQWIFTLRCRTVGNSTRDVRISTQGSPHIELIDPFGNGALWVIL

Molecular target: T1, CD40 ligand (UniProt P29965 108-261, limits assumed)
T1 sequence (looked up): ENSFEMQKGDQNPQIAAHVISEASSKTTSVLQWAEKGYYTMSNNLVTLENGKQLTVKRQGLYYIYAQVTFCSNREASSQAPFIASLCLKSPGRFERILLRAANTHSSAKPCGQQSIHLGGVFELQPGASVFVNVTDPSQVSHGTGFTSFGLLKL
Assay: Octet Red label-free (BLI)

binding, binds:
B1, B2, B3, HPFSIKNVFCIWNFFSVY (Base peptide) [CD40L M1_6], LWRLNEWNYSDAELLSLIEWCIDH (Base peptide) [CD40L M8_721]

Molecular target: T1, CD40 ligand
Assay: phage display screen on CD40L

binding, binds:
B4, B5, B6, B7, LSLYCRNHRVECFCCHTGGDRSELPSTHYSTSSGFMQVYDFFGVPFVLEY [M09_40L_0205_1016], B8, B9, LWCEWELEWNGMEWNGMEWNGMEWNAMECNGFNSIAMEWNAMEWNQPE [C02_40L_0705_1114], B10, B11, B12, B13, B14, B15, B16, B17, B18, B19, PVEKLNNLTGTPLVASFTLFVCQSGQNTLLECTLIV [C02_40L_0803_1122], PVEKLNNLTGTPLVASFTLFVCQSGQNTLLECTLIV [C02_40L_0804_1172], B20, B21, B22, B23, B24, B25, B26, B27, B28, B29, B30, B31

Molecular target: T1, CD40 ligand
Assay: primary biopanning with CD40L, phage display

binding, binds:
B1, B2, PRWVRNRFYCLFVPSGVQRGGIHLWFSNWVR (Base peptide) [CD40L M1_50], B3, LCEMIAIYVFLWKKVFL [CD40L M7_217], HPFSIKNVFCIWNFFSVY (Base peptide) [CD40L M1_6], DAAGREFFQIAGLFSFRHHWWQA [CD40L M1_30], LLYVKVICFFCMLVQYNNFQTYK (Base peptide) [CD40L M2_159], LLLFFFSPPFSIFCFSLTTLS (Base peptide) [CD40L M7_189], SIQYHWRYSRFKYYFQLIWVYYCHV [CD40L M1_82], LWRLNEWNYSDAELLSLIEWCIDH (Base peptide) [CD40L M8_721], PFTWRPTIFWIIQLIVYMRHF (Base peptide; also called CD40L M1-206) [CD40L M7_206]
